Our source for the binding values is article PMC3313078.

The test concerns the target His-SscB (chaperone for SseF). Put plainly: pull-down; SseF-M45 co-expressed with SscB, His-SscB pulled down (preparative enrichment of SseF-M45).

No constants are given. Whether binding was seen depends on the method and setting. Binding seen in cells or lysates may run through a third protein. Binding can be weak; no strength is given. Where a sequence is shown, tags or fusion partners need not be part of it.

B1: SseF-M45 (full-length SseF with M45 tag) (protein, UniProt O84951 1-260)
chain: MKIHIPSAASNIVDGNSPPSDIQAKEVSFPPPEIPAPGTPAAPVLLTPEQIRQQRDYAIHFMQYTIRALGATVVFGLSVAAAVISGGAGLPIAILAGAALVIAIGDACCAYHNYQSICQQKEPLQTASDSVALVVSALALKCGASLNCANTLANCLSLLIRSGIAISMLVLPLQFPLPAAENIAASLDMGSVITSVSLTAIGAVLDYCLARPSGDDQENSVDELHADPSVLLAEQMAALCQSATTPALMDSSDHTSRGEP
For the molecule B1, the binding entry was “binds”.
